Measurements as given in paper PMC4106197.
These are yes or no findings as the source states them, for the method shown. In cells and extracts the contact can be indirect. Binding calls can cover weak binding; strength is not graded here.

Target: PhS3L-SLF1::FLAG (Petunia hybrida)
Assay: co-IP; in vitro germinated S1/PhS3L-SLF1::FLAG pollen tubes continuously treated with S3S3 or S3LS3L style extracts; pollen tube extracts with anti-FLAG affinity gel 4 h at 4°C, PBS washes; blot with PhS-RNase and FLAG antibodies

binding: binds
B1: PhS3-RNase from S3S3 style extract (enzyme, UniProt Q40875 23-222)
chain: NFDYFQLVLTWPASFCYPKNKCQRRSNNFTIHGLWPEKKRFRLEFCTGDKYKRFLEEDNIINVLERHWIQMRFDETYANTKQPLWEHEYNRHGICCKNLYDQKAYFLLAMRLKDKLDLLTTLRTHGITPGTKHTFGEIQKAIKTVTSNNDPDLKCVENIKGVMELNEIGICYTPAADRFDRCRHSNTCDETSSTKILFRG
